Test [1] concerns the target T1, human CD40L (hCD40L antigen) (human, UniProt P29965 113-261, limits assumed).
T1 sequence (looked up): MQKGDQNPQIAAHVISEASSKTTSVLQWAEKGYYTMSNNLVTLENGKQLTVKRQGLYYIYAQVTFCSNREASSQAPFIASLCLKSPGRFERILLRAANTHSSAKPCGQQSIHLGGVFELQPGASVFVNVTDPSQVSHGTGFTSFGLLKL
Kind of test: ELISA on coated hCD40L, anti-cystatin detection (legend of FIGs. 12A-12C).

For test [2], the target named is T1, human CD40L (hCD40L antigen). The test is described as follows: ELISA on coated hCD40L, anti-cystatin detection, without or with 10 uM HSA.
The target is the same in test [3]. Kind of test: competitive ELISA, hCD40L (1 nM) against coated rhCD40 Fc; percent inhibition in FIG. 10.

The results in this text go back to patent EP4477665A1 (AffyXell Therapeutics Co., Ltd., dated 2024).

No constants are given. Whether binding was seen depends on the method and setting. Some binding calls cover weakened binding; strength is not graded here.

B1: clone-230 XT75 (designed binder)
chain: IPGGLSEAKPATPEIQEIVDKVKPQLEEKTGETYGKLEAVQYKTQVVHYYVHYNDQGTNYYIKVRAGDNKYMHLKVFKSLWGENLFAKWEDLVLTGYQVDKNKDDELTGFAEAAAKEAAAKEAAAKEAAAKEAAAKEAAAKMIPGGLSEAKPATPEIQEIVDKVKPQLEEKTGETYGKLEAVQYKTQVVHYYVHYNDQGTNYYIKVRAGDNKYMHLKVFKSLWGENLFAKWEDLVLTGYQVDKNKDDELTGFAEAAAKEAAAKEAAAKEAAAKEAAAKEAAAKMIPGGLSEAKPATPEIQEIVDKVKPQLEEKTGETYGKLEAVQYKTQVVHYYVHYNDQGTNYYIKVRAGDNKYMHLKVFKSLWGENLFAKWEDLVLTGYQVDKNKDDELTGFAEAAAKEAAAKEAAAKEAAAKEAAAKEAAAKMIPRGLSEAKPATPEIQEIVDKVKPQLEEKTGETYGKLEAVQYKTQVLANFFQRRWPGSTNYYIKVRAGDNKYMHLKVFNGPWKFRNTDRGADRVLTGYQVDKNKDDELTGF
For B1, the binding entry in test [1], in test [2] and in test [3] was “binds” in each case.

B2: clone-230 XT76 (designed binder)
chain: IPGGLSEAKPATPEIQEIVDKVKPQLEEKTGETYGKLEAVQYKTQVVHYYVHYNDQGTNYYIKVRAGDNKYMHLKVFKSLWGENLFAKWEDLVLTGYQVDKNKDDELTGFAEAAAKEAAAKEAAAKEAAAKEAAAKEAAAKMIPGGLSEAKPATPEIQEIVDKVKPQLEEKTGETYGKLEAVQYKTQVVHYYVHYNDQGTNYYIKVRAGDNKYMHLKVFKSLWGENLFAKWEDLVLTGYQVDKNKDDELTGFAEAAAKEAAAKEAAAKEAAAKEAAAKEAAAKMIPGGLSEAKPATPEIQEIVDKVKPQLEEKTGETYGKLEAVQYKTQVVHYYVHYNDQGTNYYIKVRAGDNKYMHLKVFKSLWGENLFAKWEDLVLTGYQVDKNKDDELTGFAEAAAKEAAAKEAAAKEAAAKEAAAKEAAAKMIPGGLSEAKPATPEIQEIVDKVKPQLEEKTGETYGKLEAVQYKTQVVHYYVHYNDQGTNYYIKVRAGDNKYMHLKVFKSLWGENLFAKWEDLVLTGYQVDKNKDDELTGFAEAAAKEAAAKEAAAKEAAAKEAAAKEAAAKMIPRGLSEAKPATPEIQEIVDKVKPQLEEKTGETYGKLEAVQYKTQVLANFFQRRWPGSTNYYIKVRAGDNKYMHLKVFNGPWKFRNTDRGADRVLTGYQVDKNKDDELTGF
Take B2: the binding result in test [1], in test [2] and in test [3] was “binds” each time.

B3: clone-230 DS (designed binder)
chain: IPGGLSEAKPATPEIQEIVDKVKPQLEEKTGETYGKLEAVQYKTQVVHYYVHYNDQGTNYYIKVRAGDNKYMHLKVFKSLWGENLFAKWEDLVLTGYQVDKNKDDELTGFAEAAAKEAAAKEAAAKEAAAKEAAAKEAAAKMIPGGLSEAKPATPEIQEIVDKVKPQLEEKTGETYGKLEAVQYKTQVVHYYVHYNDQGTNYYIKVRAGDNKYMHLKVFKSLWGENLFAKWEDLVLTGYQVDKNKDDELTGFAEAAAKEAAAKEAAAKEAAAKEAAAKEAAAKMIPGGLSEAKPATPEIQEIVDKVKPQLEEKTGETYGKLEAVQYKTQVVHYYVHYNDQGTNYYIKVRAGDNKYMHLKVFKSLWGENLFAKWEDLVLTGYQVDKNKDDELTGFAEAAAKEAAAKEAAAKEAAAKEAAAKEAAAKMIPGGLSEAKPATPEIQEIVDKVKPQLEEKTGETYGKLEAVQYKTQVVHYYVHYNDQGTNYYIKVRAGDNKYMHLKVFKSLWGENLFAKWEDLVLTGYQVDKNKDDELTGF
For B3, the binding result in test [3] is given as “binds”.
